Reference: paper doi:10.1101/751974
No constants are given. Whether binding was seen depends on the method and setting. Binding seen in cells or lysates may run through a third protein. Some results given as binding are weak or reduced against the parent protein; the word gives no strength. For some assays here: Where a sequence is shown, tags or fusion partners need not be part of it.

By UniProt entry, the sequences of proteins in these tests, tags left out.
UniProt P27694: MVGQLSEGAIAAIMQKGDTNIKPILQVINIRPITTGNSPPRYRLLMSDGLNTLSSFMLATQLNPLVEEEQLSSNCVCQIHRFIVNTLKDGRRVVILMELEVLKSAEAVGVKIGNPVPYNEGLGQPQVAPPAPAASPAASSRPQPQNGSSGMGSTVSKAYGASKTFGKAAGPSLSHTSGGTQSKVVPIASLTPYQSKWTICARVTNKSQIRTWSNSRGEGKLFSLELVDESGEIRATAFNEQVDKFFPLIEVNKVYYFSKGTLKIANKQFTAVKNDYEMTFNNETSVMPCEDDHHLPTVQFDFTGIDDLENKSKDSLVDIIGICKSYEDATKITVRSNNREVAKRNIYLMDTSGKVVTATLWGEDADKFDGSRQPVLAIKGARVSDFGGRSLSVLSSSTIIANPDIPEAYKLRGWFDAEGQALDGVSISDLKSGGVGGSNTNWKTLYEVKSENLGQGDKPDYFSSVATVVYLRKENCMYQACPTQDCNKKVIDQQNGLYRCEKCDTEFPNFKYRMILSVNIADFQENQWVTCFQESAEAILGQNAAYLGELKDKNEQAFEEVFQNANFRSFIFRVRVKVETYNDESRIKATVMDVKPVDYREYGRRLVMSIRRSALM
UniProt P15927: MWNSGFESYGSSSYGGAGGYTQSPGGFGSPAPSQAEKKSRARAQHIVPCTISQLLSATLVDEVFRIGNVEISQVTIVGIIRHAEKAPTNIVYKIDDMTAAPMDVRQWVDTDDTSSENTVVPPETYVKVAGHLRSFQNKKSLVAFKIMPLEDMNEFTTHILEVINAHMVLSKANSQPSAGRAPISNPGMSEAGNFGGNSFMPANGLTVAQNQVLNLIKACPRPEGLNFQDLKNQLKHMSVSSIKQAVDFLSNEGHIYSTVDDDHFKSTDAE

Assays:
[1] = biological target: GST-MCM8IP RBM (RPA-Binding Mutant) (human) (UniProt Q8N3J3); experiment: pull-down
[2] = biological target: T1, GST-MCM8IP WT (human) (UniProt Q8N3J3); experiment: pull-down
T1 sequence: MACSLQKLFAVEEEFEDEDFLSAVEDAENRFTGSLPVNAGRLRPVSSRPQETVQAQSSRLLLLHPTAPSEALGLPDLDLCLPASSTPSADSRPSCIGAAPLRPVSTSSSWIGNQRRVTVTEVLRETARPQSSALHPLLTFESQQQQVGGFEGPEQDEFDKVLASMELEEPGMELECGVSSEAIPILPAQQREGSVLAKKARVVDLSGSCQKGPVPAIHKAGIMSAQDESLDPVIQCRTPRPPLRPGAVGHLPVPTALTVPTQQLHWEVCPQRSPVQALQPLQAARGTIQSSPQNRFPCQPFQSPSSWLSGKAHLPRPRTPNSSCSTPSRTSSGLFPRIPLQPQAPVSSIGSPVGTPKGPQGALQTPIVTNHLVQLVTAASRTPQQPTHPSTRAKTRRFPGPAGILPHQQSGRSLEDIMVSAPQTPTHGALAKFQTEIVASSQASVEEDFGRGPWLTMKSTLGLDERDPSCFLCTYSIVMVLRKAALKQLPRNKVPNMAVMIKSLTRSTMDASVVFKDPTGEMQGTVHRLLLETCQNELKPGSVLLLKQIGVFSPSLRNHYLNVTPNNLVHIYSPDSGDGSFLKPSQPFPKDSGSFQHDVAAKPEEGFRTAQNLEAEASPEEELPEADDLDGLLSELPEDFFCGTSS

[3] = biological target: GST-MCM8IP, first 215 residues (human) (UniProt Q8N3J3); experiment: pull-down
[4] = biological target: T2, HA-MCM8IP WT (human) (UniProt Q8N3J3); experiment: co-IP
T2 sequence: T1 sequence

| binding [4] | Substance | binding [1] | binding [2] | binding [3] |
| --- | --- | --- | --- | --- |
|  | RPA1 expressed in bacteria (from UniProt P27694 1-616) | no binding | binds | binds |
| binds | RPA1, endogenous (from UniProt P27694 1-616) |  |  |  |
| binds | RPA2, endogenous (from UniProt P15927 1-270) |  |  |  |
